Laboratory results as given in paper PMC11117311.
Where a chain is given by its changes, count along the chain named. These are yes or no findings as the source states them, for the method shown. Binding seen in cells or lysates may run through a third protein. Binding can be weak; no strength is given. For some assays here: Tags and fused reporters may be left off the sequences shown. One block for each molecule: values may come before it.

What was measured:
[1] = target: T1, FLAG-tagged IDH2 (UniProt P48735); experiment: co-IP; RBE cells cotransfected with FLAG-tagged IDH(s) and HA-K18^WT or HA-K18^S30A; enrichment with anti-FLAG beads, HA-K18 levels by Western blot
T1 sequence: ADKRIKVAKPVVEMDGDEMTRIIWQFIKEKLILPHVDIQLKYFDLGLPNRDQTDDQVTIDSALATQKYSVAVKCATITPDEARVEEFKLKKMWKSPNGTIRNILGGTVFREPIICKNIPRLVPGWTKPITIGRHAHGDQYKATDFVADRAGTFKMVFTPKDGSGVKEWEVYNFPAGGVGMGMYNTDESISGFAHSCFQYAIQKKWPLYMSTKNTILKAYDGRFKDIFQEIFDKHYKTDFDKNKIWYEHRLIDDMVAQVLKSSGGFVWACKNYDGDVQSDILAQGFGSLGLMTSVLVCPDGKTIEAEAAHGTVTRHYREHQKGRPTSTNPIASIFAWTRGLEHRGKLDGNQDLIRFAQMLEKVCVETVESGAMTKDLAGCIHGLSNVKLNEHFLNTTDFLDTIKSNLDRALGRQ

[2] = target: T2, FLAG-tagged IDH3A (UniProt P50213); experiment: as above
T2 sequence: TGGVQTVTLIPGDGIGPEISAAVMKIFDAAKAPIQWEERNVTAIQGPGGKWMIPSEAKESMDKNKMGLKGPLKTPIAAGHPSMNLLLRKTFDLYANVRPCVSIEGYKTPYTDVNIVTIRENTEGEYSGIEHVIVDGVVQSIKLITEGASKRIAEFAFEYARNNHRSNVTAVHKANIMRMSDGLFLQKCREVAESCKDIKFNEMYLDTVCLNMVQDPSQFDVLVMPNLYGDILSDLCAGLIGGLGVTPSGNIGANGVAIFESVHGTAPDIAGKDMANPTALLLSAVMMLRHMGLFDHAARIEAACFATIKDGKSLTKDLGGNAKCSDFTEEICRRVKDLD

[3] = target: T3, FLAG-tagged IDH3G (UniProt P51553); experiment: as above
T3 sequence: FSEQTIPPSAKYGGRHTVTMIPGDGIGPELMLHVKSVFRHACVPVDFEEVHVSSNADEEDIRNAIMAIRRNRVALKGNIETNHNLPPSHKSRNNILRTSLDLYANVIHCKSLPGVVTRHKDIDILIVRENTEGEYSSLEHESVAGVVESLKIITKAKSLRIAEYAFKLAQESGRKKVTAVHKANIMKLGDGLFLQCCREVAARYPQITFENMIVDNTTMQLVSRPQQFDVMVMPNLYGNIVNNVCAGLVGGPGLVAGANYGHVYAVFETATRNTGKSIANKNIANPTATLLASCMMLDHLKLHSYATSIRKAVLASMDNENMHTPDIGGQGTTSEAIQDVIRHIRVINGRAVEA

[4] = target: T1, FLAG-tagged IDH2; experiment: co-IP; RBE cells cotransfected with FLAG-IDH2 wild type or S202A and K18^WT and/or K18^S30A; Western blot and immunoprecipitation analyses (Figure S37); beads not stated
[5] = target: T4, FLAG-tagged IDH2 Ser202 mutation (FLAG-IDH2^S202A) (UniProt P48735); experiment: as above
T4 sequence: T1 sequence with S163A

[6] = target: FLAG-tagged Keratin 18 S30A (FLAG-K18^S30A) (human); experiment: co-IP; RBE-rescued cells (Figure S32); as the experiment in HuCCT1 cells
[7] = target: FLAG-tagged Keratin 18 S30A (FLAG-K18^S30A) (human); experiment: co-IP; HuCCT1 stable cell lines shK18 + WT and shK18 + S30A; immunoprecipitation of FLAG-K18, Western blot for endogenous TCA cycle enzymes

Molecule: HA-tagged K18 S30A mutant (HA-K18^S30A) (human)
binding [1]: binds
binding [2]: binds
binding [3]: binds
binding [4]: binds
binding [5]: binds

B3: isocitrate dehydrogenase IDH2 (endogenous) (enzyme, UniProt P48735 40-452)
chain: T1 sequence
binding [6]: binds
binding [7]: binds

Continued, values first:

binding [6]: binds
binding [7]: binds
B1: isocitrate dehydrogenase IDH3G (endogenous) (enzyme, UniProt P51553 40-393)
chain: T3 sequence

binding [6]: binds
binding [7]: binds
B2: isocitrate dehydrogenase IDH3A (endogenous) (enzyme, UniProt P50213 28-366)
chain: T2 sequence
